Source: PubChem BioAssay AID434947 (Broad Institute, 2010)
The campaign covered roughly 2,200 compounds. About 15 (0.7%) were called active.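 How the source made its calls: active means fitted half-maximal concentration for loss of luminescence signal no more than a set limit of log units above the top tested concentration; inconclusive means flat fit with 30 to 70% signal loss, or invalid fit; inactive means half-maximal concentration above that set limit.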 The list shows a part of the results.

Test: inhibitors of ADP-Glo detection reagents, dose response, artefact control for GSK3beta inhibitor project, biochemical, luminescence, cell-free, homogeneous (AID 434947);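 further: kinase-free counter screen of ADP-Glo detection reagents for GSK3beta hits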
Conditions: 5 uM ADP

EC50, inactive:
O=C1Nc2ccccc2Nc2ccc([N+](=O)[O-])cc21 > 30 µM
O=C1Nc2ccccc2C1=Nc1cccc([N+](=O)[O-])c1 > 30 µM
CCOC(=O)COc1ccc(C(=O)c2ccccc2)c(O)c1 > 30 µM
Nc1ncnc2c1ncn2C1OC(CO)C(O)C1O (stereo not given) > 30 µM
CC1=C(C(=O)Nc2ccccc2F)C(c2ccsc2)C2=C(CC(C)(C)CC2=O)N1 (stereo not given) > 30 µM
Nc1nonc1-n1nnc(C(=O)N/N=C/c2cc(Cl)ccc2O)c1CN1CCCCCC1 > 30 µM
COCCNC(=O)c1ccc(Cl)c(Cl)c1 > 30 µM
N#Cc1c(-c2cccs2)nc(SCc2ccc(Cl)cc2)[nH]c1=O > 30 µM
O=c1cc(-c2ccccc2)c2ccc(O)cc2o1 > 30 µM
CCc1ccccc1NC(=O)CSc1nnc(-c2ccncc2)o1 > 30 µM
c1ccc(CCNCC2COc3ccccc3O2)cc1 (stereo not given) > 30 µM
Cc1c(O)ccc2c(-c3ccccc3)cc(=O)oc12 > 30 µM
CCn1c(SCC(=O)Nc2ccc(Cl)cc2)nnc1C1CC1 > 30 µM
CC(/C=C/c1ccccc1F)=N\NC(=O)C(C)C > 30 µM
OC1(C#CCN2CCOCC2)CCCCC1 > 30 µM
COc1cc2ncnc(Nc3ccc4c(c3)OCO4)c2cc1OC > 30 µM
O=[N+]([O-])c1ccc(-n2nnnc2-c2ccccc2)c([N+](=O)[O-])c1 > 30 µM
O=C(CSc1ccc2nnc(-c3cccs3)n2n1)N1CCCC1 > 30 µM
CC[n+]1c(/C=C/N(C)c2ccccc2)oc2ccccc21 > 30 µM
CCn1cc(CN2CCC(n3nccc3NC(=O)CCCc3ccccc3)CC2)cn1 > 30 µM
COc1ccc2oc3cc(C)[n+]([O-])c(-c4ccc(Br)cc4)c3c2c1 > 30 µM
CN(C)CCCNc1nc(N)c([N+](=O)[O-])c(NCc2ccccc2)n1 > 30 µM
C/C(=N\NC(=S)Nc1c(C)cccc1C)c1cc2ccccc2o1 > 30 µM
COc1ccc(-n2nc3c(N)n[nH]c3cc2=O)cc1 > 30 µM
O=C(Nc1cccnc1)c1sc(Nc2ccccc2)nc1-c1ccccc1 > 30 µM
Fc1cccc(Cl)c1CSc1nnc(-c2ccncc2)o1 > 30 µM
CCOC(=O)c1c(C)[nH]c(C(=O)CSc2nccc(C)n2)c1C > 30 µM
COc1ccc2cc(C(N)=O)/c(=N/NC(=O)c3ccco3)oc2c1 > 30 µM
CCOC(=O)c1ccc(NC(=O)CSc2nnc(C3CC3)n2CC)cc1 > 30 µM
Cc1ccc(NC2=CC(=O)CC(C)(C)C2)cc1F > 30 µM
Cc1ccccc1-c1nnc(SCc2ccc(F)cc2)o1 > 30 µM
Oc1ccc(N2CCN(C(=S)NCCc3ccccc3)CC2)cc1 > 30 µM
O=C1C(=O)N(c2ccccn2)C(c2ccc(Br)cc2)/C1=C(/O)c1ccc(Br)cc1 (stereo not given) > 30 µM
Cc1ccc(Nc2nc(N)c([N+](=O)[O-])c(NCc3ccccc3)n2)cc1 > 30 µM
CNc1nc(-c2ccccc2)nc(-c2ccccc2)c1C#N > 30 µM
Cc1cc(C)n2nc(SCC(=O)N(CC(C)C)c3c(N)n(CC(C)C)c(=O)[nH]c3=O)nc2n1 > 30 µM
Cc1sc2ncnc(N3CCCCC3C)c2c1C (stereo not given) > 30 µM
CSc1ncc(C(=O)Nc2ccccc2C)c(C)n1 > 30 µM
CC(C)CC(CO)N1CCN(C(=O)c2ccc(Cl)c(Cl)c2)CCC1=O (stereo not given) > 30 µM
CN(C)c1ccc(-c2nc3ccccc3n2C)cc1 > 30 µM
O=C(COC(=O)C1CCN(S(=O)(=O)c2ccccc2)CC1)NC(=O)c1ccc(OC(F)F)cc1 > 30 µM
CCN(CC)Cc1c(C(=O)N/N=C/c2ccc(C)o2)nnn1-c1nonc1N > 30 µM
Cc1ccc(C(=O)c2coc3ccc(OCC(=O)O)cc23)cc1 > 30 µM
Cc1[nH]c2ccccc2c1Cc1nnc(SCC(N)=O)o1 > 30 µM
Oc1ccc(-c2nncn2-c2ccccc2)cc1 > 30 µM
O=C1NC(=Nc2ccccc2)S/C1=C\c1ccccc1 > 30 µM
CNc1nc(N)nc(-c2cc(Cl)ccc2OC)n1 > 30 µM
NC(=O)CSc1nnc(COc2ccc3ccccc3c2)o1 > 30 µM
CCOC(=O)C(C)Sc1ccc2nnc(-c3ccc(F)cc3)n2n1 (stereo not given) > 30 µM
O=C1CN(c2nc(-c3cccnc3)nc3sc4c(c23)CCCC4)CCN1 > 30 µM
Cc1nc2[nH]c(=O)c3c(n2n1)NC1=C(C(=O)CC(C)(C)C1)C3c1ccccc1 (stereo not given) > 30 µM
Cc1c(C=Nc2ccc(S(=O)(=O)N(C)C)cc2)c(O)[nH]c(=O)c1C#N > 30 µM
Cc1ccc(N2CCN(C(=O)N3CCOCC3)CC2)c(C)c1 > 30 µM
CN(C)c1nc(-c2ccccc2)nc(-c2ccc(Cl)cc2)c1C#N > 30 µM
CC1=C(C#N)C(c2ccc(O)cc2)C2=C(CC(C)(C)CC2=O)N1 (stereo not given) > 30 µM
O=c1c(-c2ccc(O)cc2)coc2cc(O)cc(O)c12 > 30 µM
O=C(Nc1ccc(O)c2c(=O)cc(-c3ccccc3Cl)oc12)c1cccs1 > 30 µM
Cc1c(NC(=O)C(C)OC(=O)COc2ccccc2)c(=O)n(-c2ccccc2)n1C (stereo not given) > 30 µM
Cc1cc(CN(C)C(=O)c2ccc(OC3CCN(CCc4ccccc4)CC3)cc2)on1 > 30 µM
Cc1cc(-c2onc3ccc(Cl)cc23)ccc1O > 30 µM
COCCN(CC(=O)NCc1ccc(OC)cc1)C(=O)CCC(=O)Nc1nccs1 > 30 µM
COc1ccc(C(=O)Nc2ccc([N+](=O)[O-])cn2)cc1OC > 30 µM
COc1cccc(-c2nnc3sc(C4CCCCC4)nn23)c1 > 30 µM
O=[N+]([O-])c1cc(/C=N/O)ccc1Oc1cccc(Cl)c1 > 30 µM
C=CCNc1nc(N)c([N+](=O)[O-])c(Nc2ccccc2OC)n1 > 30 µM
COCCn1c(SCC(=O)Nc2ccc(Cl)cn2)nnc1-c1ccncc1 > 30 µM
O=C(c1cccc(-c2ccccc2)c1)N1CC[C@@H](N2CCC(O)CC2)[C@H](O)C1 > 30 µM
Cc1cc(Br)ccc1NC(=O)CN1C(=O)CCC1=O > 30 µM
N#Cc1c(N)nc2c(c1-c1ccc(F)cc1)CCC2 > 30 µM
Cc1cc(NC(=O)CCC(=O)N(c2cccnc2)C(C(=O)NC2CCCC2)c2ccccc2F)no1 (stereo not given) > 30 µM
CCNc1nc(N)nc(Oc2ccc(OCCOc3ccc(Cl)cc3Cl)nn2)n1 > 30 µM
N#Cc1c2n(c3c(N)ncnc13)CCCCC2 > 30 µM
OCCNc1nc(-c2cccnc2)nc2ccccc12 > 30 µM
CN1CCN(/N=C/c2ccc(-c3ccc([N+](=O)[O-])cc3Cl)o2)CC1 > 30 µM
N#Cc1c(-c2ccccc2)nc(SCC(=O)Nc2ccc(OC(F)(F)Cl)cc2)[nH]c1=O > 30 µM
c1ccc(Nc2nc(NCCN3CCOCC3)nc(Nc3ccccc3)n2)cc1 > 30 µM
O=C(Nc1ccncc1)Nc1ccccn1 > 30 µM
CC(=O)Oc1cccc(N2C(=O)c3ccc(C(=O)Nc4cccnc4)cc3C2=O)c1 > 30 µM
NC(=O)c1ncn([C@@H]2O[C@H](CO)[C@@H](O)[C@H]2O)c1O > 30 µM
Cn1nc(-c2ccc(Cl)cc2)nc2c(=O)n(C)c(=O)nc1-2 > 30 µM
O=C(O)c1ccccc1Nc1ccc(OC(F)F)cc1 > 30 µM
CSc1nc2c(c(=O)[nH]1)C(c1ccccc1)C1=C(CC(C)(C)CC1=O)N2 (stereo not given) > 30 µM
O=C(NCCCn1ccnc1)c1ccco1 > 30 µM
COC(=O)c1sc(Nc2ccccc2)nc1C > 30 µM
O=C(c1cccs1)c1coc2ccc(O)cc12 > 30 µM
CCCCCOc1ccc(/C=N/NC(=O)c2nnn(-c3nonc3N)c2CN2CCCCCC2)cc1 > 30 µM
Nc1nc(NCCCN2CCOCC2)nc(Nc2ccccc2)c1[N+](=O)[O-] > 30 µM
CC(C)=CCc1c(O)cc(O)c2c1OC(c1ccc(O)cc1)CC2=O (stereo not given) > 30 µM
Cc1[nH][nH]c(=O)c1N=Nc1ccccc1C#N > 30 µM
CCN(CC)CCNc1nc(SC)nc2sc3c(c12)CCN(C)C3 > 30 µM
Cc1ccc(SCC(=O)N2CC(C)OC(C)C2)cc1 (stereo not given) > 30 µM
N#CCCN1CCCc2cc(N=Nc3ccc(C(F)(F)F)cc3)ccc21 > 30 µM
Cc1ccc(S(=O)(=O)/N=C2/NC(=O)/C(=C/c3ccccc3)S2)cc1 > 30 µM
COc1ccc(CN(CC(=O)NCc2ccccc2)C(=O)CCC(=O)Nc2nccs2)cc1 > 30 µM
COCCn1c(SCC(=O)Nc2cccc(S(N)(=O)=O)c2)nc2ccccc21 > 30 µM

Pulled by structure from above, 3 records:
EC50, inactive:
Cc1sc2ncnc(N3CCCCC3C)c2c1C (stereo not given) > 30 µM
Cc1[nH]c2ccccc2c1Cc1nnc(SCC(N)=O)o1 > 30 µM
O=C(c1cccc(-c2ccccc2)c1)N1CC[C@@H](N2CCC(O)CC2)[C@H](O)C1 > 30 µM

Entries shown so far containing a COOH group (2):
EC50, inactive:
Cc1ccc(C(=O)c2coc3ccc(OCC(=O)O)cc23)cc1 > 30 µM
O=C(O)c1ccccc1Nc1ccc(OC(F)F)cc1 > 30 µM
